Assay results: paper PMC8629984
No constants are given. Whether binding was seen depends on the method and setting. Binding seen in cells or lysates may run through a third protein. Some results given as binding are weak or reduced against the parent protein; the word gives no strength. For some of these results: Where a sequence is shown, tags or fusion partners need not be part of it. Values belong to the molecule of their own block, whether it stands above or below them.

Sequences of proteins named here, by UniProt entry; tags and fusion partners are left off. A change or cut given only in a name is not applied to a line headed by its entry.
UniProt P05556: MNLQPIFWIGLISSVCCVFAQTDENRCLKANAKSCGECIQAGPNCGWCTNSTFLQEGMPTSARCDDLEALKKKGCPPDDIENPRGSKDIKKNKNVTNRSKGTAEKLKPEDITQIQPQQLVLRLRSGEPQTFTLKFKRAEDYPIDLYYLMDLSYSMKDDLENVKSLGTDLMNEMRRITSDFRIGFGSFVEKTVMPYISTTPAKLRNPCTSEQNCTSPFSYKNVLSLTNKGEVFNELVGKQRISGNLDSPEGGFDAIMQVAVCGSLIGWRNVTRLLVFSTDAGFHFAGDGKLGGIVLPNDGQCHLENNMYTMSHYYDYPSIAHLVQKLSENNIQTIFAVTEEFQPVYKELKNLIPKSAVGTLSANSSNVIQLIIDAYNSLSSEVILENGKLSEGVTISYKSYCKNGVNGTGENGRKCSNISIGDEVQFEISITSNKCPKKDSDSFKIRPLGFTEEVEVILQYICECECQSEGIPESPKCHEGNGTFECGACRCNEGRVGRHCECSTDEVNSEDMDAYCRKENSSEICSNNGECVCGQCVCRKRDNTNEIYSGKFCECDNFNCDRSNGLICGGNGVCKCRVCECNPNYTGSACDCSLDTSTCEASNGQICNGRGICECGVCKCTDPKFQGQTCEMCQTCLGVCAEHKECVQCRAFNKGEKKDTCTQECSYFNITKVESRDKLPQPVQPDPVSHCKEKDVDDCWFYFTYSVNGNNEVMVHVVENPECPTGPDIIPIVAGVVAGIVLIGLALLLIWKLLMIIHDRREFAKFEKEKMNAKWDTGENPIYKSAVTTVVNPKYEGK
UniProt P35579: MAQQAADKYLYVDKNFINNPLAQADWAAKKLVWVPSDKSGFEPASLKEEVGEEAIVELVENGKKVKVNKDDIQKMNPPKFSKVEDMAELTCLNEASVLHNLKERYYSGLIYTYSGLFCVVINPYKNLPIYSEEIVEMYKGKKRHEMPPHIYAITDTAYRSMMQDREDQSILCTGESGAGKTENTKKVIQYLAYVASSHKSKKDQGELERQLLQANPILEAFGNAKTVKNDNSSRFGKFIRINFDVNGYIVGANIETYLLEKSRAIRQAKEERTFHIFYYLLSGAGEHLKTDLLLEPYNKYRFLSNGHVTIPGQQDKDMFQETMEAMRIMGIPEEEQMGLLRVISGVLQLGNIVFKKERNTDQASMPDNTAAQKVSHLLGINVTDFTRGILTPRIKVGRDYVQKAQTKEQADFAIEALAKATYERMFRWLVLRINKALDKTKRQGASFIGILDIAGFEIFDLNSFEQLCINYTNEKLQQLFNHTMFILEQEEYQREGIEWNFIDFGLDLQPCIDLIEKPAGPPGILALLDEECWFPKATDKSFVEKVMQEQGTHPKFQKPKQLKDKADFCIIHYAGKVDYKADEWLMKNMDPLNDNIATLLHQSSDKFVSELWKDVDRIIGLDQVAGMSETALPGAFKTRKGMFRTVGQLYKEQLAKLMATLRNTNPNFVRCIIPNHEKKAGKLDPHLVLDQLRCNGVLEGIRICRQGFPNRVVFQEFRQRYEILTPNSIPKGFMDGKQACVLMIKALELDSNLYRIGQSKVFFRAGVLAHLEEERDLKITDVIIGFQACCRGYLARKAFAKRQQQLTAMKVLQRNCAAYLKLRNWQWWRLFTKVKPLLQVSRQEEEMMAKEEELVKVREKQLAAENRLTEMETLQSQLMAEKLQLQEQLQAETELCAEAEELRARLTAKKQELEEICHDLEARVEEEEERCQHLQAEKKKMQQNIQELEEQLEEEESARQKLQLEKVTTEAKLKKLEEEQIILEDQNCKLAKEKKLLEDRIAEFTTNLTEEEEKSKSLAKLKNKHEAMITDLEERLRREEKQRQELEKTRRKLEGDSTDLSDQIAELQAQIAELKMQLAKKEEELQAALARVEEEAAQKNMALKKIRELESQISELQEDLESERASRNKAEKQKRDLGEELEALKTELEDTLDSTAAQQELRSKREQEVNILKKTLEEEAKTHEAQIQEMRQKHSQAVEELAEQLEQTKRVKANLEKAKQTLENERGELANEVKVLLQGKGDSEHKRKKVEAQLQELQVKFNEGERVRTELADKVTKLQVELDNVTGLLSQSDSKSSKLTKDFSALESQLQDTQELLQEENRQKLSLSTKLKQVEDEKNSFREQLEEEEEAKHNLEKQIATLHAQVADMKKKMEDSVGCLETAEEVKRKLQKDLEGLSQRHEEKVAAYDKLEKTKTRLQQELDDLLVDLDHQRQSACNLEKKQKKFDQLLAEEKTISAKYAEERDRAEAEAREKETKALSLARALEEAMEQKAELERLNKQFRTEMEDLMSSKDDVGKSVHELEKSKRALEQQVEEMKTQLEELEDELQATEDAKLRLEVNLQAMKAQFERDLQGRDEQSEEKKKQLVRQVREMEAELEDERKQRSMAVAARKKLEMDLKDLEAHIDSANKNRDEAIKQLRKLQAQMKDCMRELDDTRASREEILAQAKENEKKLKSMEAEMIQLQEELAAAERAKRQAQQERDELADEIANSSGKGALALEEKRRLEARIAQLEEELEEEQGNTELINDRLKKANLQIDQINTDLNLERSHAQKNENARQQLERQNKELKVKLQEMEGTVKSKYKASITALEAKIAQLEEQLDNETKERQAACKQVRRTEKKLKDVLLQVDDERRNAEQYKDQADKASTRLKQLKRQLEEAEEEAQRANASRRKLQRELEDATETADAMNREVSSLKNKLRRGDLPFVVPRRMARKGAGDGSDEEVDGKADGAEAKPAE
UniProt Q9Y490: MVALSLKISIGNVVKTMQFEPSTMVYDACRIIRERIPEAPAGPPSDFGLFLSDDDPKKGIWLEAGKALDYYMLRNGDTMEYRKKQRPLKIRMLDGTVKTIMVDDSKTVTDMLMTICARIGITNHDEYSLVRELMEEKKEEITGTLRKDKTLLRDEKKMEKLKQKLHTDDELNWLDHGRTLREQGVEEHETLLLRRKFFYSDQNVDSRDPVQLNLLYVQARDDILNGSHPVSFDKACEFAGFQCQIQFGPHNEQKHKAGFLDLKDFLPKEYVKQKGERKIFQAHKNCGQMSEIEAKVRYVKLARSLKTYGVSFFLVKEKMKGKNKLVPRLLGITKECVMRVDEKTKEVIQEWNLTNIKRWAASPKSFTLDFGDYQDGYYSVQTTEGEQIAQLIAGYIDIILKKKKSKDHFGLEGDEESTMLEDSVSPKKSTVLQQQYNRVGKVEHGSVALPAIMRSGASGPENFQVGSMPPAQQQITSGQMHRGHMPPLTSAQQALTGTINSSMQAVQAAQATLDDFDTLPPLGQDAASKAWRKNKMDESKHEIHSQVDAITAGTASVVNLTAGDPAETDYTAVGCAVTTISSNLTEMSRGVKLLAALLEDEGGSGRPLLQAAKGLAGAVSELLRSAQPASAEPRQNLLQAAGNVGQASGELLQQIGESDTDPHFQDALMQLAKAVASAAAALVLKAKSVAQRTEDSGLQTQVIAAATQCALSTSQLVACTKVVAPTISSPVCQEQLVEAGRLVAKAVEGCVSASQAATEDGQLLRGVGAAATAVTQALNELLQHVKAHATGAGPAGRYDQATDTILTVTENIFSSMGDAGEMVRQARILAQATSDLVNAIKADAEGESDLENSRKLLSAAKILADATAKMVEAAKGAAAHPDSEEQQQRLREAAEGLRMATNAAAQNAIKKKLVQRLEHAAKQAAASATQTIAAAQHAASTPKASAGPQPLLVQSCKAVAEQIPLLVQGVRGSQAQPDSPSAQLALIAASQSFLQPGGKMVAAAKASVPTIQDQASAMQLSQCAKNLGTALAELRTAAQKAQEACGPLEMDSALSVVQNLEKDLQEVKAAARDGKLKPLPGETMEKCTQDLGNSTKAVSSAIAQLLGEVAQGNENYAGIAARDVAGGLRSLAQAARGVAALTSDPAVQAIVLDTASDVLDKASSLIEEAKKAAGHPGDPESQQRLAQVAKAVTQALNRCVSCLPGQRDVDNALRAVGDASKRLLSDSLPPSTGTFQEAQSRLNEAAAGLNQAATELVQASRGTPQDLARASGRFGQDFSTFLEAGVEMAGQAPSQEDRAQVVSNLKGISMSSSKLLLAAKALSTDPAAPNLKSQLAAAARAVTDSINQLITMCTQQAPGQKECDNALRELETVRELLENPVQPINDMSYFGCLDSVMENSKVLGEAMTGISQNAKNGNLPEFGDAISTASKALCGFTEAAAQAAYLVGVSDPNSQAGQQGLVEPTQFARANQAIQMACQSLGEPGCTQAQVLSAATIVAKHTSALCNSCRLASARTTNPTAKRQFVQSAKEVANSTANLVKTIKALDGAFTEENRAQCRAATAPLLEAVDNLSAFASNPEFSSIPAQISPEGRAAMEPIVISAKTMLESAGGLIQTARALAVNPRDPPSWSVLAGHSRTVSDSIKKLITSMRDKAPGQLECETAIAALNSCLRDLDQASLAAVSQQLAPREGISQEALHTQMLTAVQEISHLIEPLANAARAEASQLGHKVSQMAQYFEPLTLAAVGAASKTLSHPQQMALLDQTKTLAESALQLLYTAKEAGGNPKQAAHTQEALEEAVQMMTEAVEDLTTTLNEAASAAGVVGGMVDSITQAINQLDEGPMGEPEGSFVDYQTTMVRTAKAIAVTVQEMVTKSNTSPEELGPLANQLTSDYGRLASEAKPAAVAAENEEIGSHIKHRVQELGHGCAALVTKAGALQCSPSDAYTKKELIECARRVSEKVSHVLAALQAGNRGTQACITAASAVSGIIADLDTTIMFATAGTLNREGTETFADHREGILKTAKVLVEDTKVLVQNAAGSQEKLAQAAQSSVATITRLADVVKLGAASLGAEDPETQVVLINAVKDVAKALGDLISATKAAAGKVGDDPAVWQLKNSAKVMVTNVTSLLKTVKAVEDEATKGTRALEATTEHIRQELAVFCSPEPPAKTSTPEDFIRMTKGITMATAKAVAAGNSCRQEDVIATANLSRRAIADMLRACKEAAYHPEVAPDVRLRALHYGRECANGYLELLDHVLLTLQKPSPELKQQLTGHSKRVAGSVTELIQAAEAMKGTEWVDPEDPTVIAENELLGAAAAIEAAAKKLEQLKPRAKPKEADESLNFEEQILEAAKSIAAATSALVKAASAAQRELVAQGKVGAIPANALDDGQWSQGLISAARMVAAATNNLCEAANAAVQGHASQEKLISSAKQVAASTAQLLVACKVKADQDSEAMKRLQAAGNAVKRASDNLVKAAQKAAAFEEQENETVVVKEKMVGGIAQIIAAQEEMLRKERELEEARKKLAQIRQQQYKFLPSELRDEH
UniProt Q9UNE7: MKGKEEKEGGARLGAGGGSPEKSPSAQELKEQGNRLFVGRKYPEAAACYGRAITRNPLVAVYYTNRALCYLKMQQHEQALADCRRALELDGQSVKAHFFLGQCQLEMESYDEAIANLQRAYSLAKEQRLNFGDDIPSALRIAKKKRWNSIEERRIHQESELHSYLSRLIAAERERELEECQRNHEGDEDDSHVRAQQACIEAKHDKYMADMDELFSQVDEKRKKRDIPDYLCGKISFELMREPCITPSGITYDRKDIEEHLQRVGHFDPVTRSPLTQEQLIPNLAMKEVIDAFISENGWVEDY

How the values were obtained:
[1] = molecular target: integrin β1, endogenous (human (endogenous in SW620, SW480)) (UniProt P05556); test: co-IP; SW480 cells transfected with vector or MYH9, ATG9B or ΔATG9B plasmids, RIPA lysates, western blot
[2] = molecular target: integrin β1, endogenous (human (endogenous in SW620, SW480)) (UniProt P05556); test: co-IP; endogenous proteins in SW620 and LoVo lysates (RIPA buffer), indicated antibodies on protein A/G beads, western blot; SW620 also with si-Control or si-ATG9B
[3] = molecular target: T1, autophagy-related protein 9B (ATG9B), endogenous (human (endogenous in SW620, LoVo, SW480)) (UniProt Q674R7); test: as above
T1 sequence: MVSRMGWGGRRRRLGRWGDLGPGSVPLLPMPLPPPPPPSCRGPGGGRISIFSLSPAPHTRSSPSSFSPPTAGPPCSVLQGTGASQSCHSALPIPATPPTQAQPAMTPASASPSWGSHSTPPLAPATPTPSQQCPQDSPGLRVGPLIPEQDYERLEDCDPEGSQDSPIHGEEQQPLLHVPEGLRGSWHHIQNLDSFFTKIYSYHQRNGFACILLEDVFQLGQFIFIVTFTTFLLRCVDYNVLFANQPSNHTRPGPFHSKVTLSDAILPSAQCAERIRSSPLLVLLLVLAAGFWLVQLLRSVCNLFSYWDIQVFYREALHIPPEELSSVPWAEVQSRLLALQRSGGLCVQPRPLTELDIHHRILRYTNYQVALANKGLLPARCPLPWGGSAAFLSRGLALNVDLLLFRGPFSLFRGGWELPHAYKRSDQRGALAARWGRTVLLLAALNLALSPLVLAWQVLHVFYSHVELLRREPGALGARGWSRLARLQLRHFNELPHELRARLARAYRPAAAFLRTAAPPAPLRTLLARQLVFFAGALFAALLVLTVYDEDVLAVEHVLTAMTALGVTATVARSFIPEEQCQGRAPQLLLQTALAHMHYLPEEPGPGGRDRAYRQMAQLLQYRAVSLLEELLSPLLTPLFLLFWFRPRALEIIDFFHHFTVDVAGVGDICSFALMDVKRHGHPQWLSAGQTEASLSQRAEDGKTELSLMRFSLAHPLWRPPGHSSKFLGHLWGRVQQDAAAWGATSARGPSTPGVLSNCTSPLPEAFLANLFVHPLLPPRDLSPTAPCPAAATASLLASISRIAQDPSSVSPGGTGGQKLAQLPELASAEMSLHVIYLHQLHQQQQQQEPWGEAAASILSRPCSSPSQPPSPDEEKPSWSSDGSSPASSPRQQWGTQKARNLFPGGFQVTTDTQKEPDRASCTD

[4] = molecular target: myosin-9 (MYH9), endogenous (human (endogenous in SW620, LoVo, SW480)) (UniProt P35579); test: co-IP; SW480 cells transfected with vector or MYH9, ATG9B or ΔATG9B plasmids, RIPA lysates, western blot
[5] = molecular target: T1, autophagy-related protein 9B (ATG9B), endogenous (human (endogenous in SW620, LoVo, SW480)); test: as above
[6] = molecular target: myosin-9 (MYH9), endogenous (human (endogenous in SW620, LoVo, SW480)) (UniProt P35579); test: co-IP; Fig. S6B; cells and constructs not shown
[7] = molecular target: T1, autophagy-related protein 9B (ATG9B), endogenous (human (endogenous in SW620, LoVo, SW480)); test: co-IP; Fig. S6B; cells and constructs not shown
[8] = molecular target: T2, His-tagged ATG9B (ATG9B^His) (human) (UniProt Q674R7); test: co-IP; HEK293T cells transfected with His-tagged ATG9B constructs and Flag-tagged MYH9 constructs, RIPA lysates, IP with anti-Flag or anti-His, western blot
T2 sequence: T1 sequence

[9] = molecular target: T3, ATG9B-Cd2^His protein (amino acids 298–438) (human) (UniProt Q674R7); test: pull-down; bacteria-expressed His or ATG9B-Cd2^His held on His-tag magnetic beads, added to lysates of 293T cells transfected with MYH9^Flag overnight, eluate by western blot; only the target purified
T3 sequence: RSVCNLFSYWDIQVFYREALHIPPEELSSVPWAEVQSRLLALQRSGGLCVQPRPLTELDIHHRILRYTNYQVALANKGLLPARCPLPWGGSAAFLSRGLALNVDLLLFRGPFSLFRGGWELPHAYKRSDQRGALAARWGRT

[10] = molecular target: myosin-9 (MYH9), endogenous (human (endogenous in SW620, LoVo, SW480)) (UniProt P35579); test: co-IP; SW480 cells transfected with vector or MYH9, ATG9B or ΔATG9B plasmids, RIPA lysates, western blot; remark: listed apart in the source

binding [1]: binds | binding [2]: binds | binding [3]: binds
Molecule: Talin-1, endogenous (from UniProt Q9Y490 1-2541)

binding [4]: binds | binding [5]: binds | binding [6]: binds | binding [7]: binds
Molecule: E3 ubiquitin ligase STUB1 (carboxyl terminus of hsc70-interacting protein, CHIP) (from UniProt Q9UNE7 1-303) (enzyme)

binding [3]: binds
Molecule: myosin-9 (MYH9), endogenous (from UniProt P35579 1-1960)

binding [3]: binds
Molecule: integrin β1, endogenous (from UniProt P05556 21-798) (receptor)

binding [5]: binds
Molecule: MYH9 overexpressed in SW480 cells (MYH9 plasmids) (from UniProt P35579 1-1960)

binding [8]: binds | binding [9]: binds
Molecule: Flag-tagged MYH9 (MYH9^Flag) (from UniProt P35579 1-1960)

binding [10]: binds
B1: ATG9B overexpressed in SW480 cells (ATG9B plasmids) (protein, UniProt Q674R7 1-924)
chain: T1 sequence
